Source: US12005142B2, “Sustained-release compositions comprising a therapeutic agent for treating depression or anxiety and uses thereof” (TAIWAN LIPOSOME CO., LTD., priority 2018, dated 2024)
Counter-ions that a name gives are not always drawn. Like-named read-outs stand apart in the source and are kept apart here.

Experiments:
in vivo = conditions: female, Sprague-Dawley, rat, plasma
[1] = for AUC0-inf/dose / Cmax/dose: rat plasma; for time within which scopolamine was undetectable in plasma: FIG. 2

`CN1[C@@H]2C[C@@H](OC(=O)[C@H](CO)c3ccccc3)C[C@H]1[C@@H]1O[C@@H]12` [Free Scopolamine, scopolamine hydrobromide trihydrate] showed an AUC(0-inf) (in vivo; iv, 2 mg/kg) of 644 ng·h/mL, an AUC(0-t) (in vivo; iv, 2 mg/kg) of 639 ng·h/mL and a Cmax (in vivo; iv, 2 mg/kg) of 814 ng/mL. It also gave an AUC(0-inf) (in vivo; sc, 5 mg/kg) of 887 ng·h/mL, an AUC(0-t) (in vivo; sc, 5 mg/kg) of 886 ng·h/mL and a Cmax (in vivo; sc, 5 mg/kg) of 640 ng/mL. For the same compound, the AUC0-inf/dose ([1]; free scopolamine IV 2 mg/kg) was 321.89, the Cmax/dose ([1]; free scopolamine IV 2 mg/kg) was 407.00 and the “time within which scopolamine was undetectable in plasma” value ([1]; free scopolamine IV) was ≤ 2 h. For the same compound, the AUC0-inf/dose ([1]; free scopolamine SC 5 mg/kg) was 177.40, the Cmax/dose ([1]; free scopolamine SC 5 mg/kg) was 127.93 and the “time within which scopolamine was undetectable in plasma” value ([1]; free scopolamine SC) was ≤ 6 h.
